According to PMC3608619:
These are yes or no findings as the source states them, for the method shown. In cells and extracts the contact can be indirect. Some binding calls cover weakened binding; strength is not graded here.

By UniProt entry, the sequences of proteins in these tests, tags left out.
UniProt P70460: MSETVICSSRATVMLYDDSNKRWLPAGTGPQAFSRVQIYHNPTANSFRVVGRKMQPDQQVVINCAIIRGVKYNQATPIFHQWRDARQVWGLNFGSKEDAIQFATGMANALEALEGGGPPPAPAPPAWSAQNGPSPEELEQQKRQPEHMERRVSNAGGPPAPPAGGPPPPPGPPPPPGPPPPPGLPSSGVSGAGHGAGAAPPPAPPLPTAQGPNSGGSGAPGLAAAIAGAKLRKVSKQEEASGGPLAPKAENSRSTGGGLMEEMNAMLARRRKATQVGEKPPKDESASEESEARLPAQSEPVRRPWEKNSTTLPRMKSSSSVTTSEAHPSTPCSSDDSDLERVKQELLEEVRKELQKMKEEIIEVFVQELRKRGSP
UniProt Q8BKX1: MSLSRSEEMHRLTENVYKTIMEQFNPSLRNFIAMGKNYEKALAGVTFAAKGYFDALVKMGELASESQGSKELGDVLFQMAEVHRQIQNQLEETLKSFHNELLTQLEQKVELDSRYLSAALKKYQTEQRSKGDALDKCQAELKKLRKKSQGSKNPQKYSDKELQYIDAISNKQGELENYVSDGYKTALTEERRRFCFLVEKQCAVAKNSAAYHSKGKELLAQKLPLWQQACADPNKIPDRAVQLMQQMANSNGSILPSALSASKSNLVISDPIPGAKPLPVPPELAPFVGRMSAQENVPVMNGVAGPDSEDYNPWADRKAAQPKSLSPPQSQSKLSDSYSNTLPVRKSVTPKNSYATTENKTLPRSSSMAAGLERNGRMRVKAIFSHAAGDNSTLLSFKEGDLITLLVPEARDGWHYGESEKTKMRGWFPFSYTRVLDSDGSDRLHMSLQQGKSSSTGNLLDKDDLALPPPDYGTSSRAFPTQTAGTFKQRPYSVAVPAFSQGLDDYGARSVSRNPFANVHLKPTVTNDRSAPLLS

Target: VASP (mouse (endogenous in NIH-Src)) (UniProt P70460)
Assay: co-IP; endogenous proteins; NIH-Src cell lysates precipitated with anti-VASP antibody on protein A-agarose beads or control IgG; immunoblot; lysis in RIPA buffer or cell lysis buffer (which one is not told)

- binding: binds
Substance: IRSp53 (from UniProt Q8BKX1 1-535)
